# From PMC5494471
# Results are given in words; binding and its absence hold for the method and conditions named. In cells and extracts the contact can be indirect. For some assays here: A result given as binding can be weak or reduced; the word gives no strength.
# B1: Strep-UBAP1 (protein, UniProt Q9NZ09 1-502)
# chain: MASKKLGADFHGTFSYLDDVPFKTGDKFKTPAKVGLPIGFSLPDCLQVVREVQYDFSLEKKTIEWAEEIKKIEEAEREAECKIAEAEAKVNSKSGPEGDSKMSFSKTHSTATMPPPINPILASLQHNSILTPTRVSSSATKQKVLSPPHIKADFNLADFECEEDPFDNLELKTIDEKEELRNILVGTTGPIMAQLLDNNLPRGGSGSVLQDEEVLASLERATLDFKPLHKPNGFITLPQLGNCEKMSLSSKVSLPPIPAVSNIKSLSFPKLDSDDSNQKTAKLASTFHSTSCLRNGTFQNSLKPSTQSSASELNGHHTLGLSALNLDSGTEMPALTSSQMPSLSVLSVCTEESSPPNTGPTVTPPNFSVSQVPNMPSCPQAYSELQMLSPSERQCVETVVNMGYSYECVLRAMKKKGENIEQILDYLFAHGQLCEKGFDPLLVEEALEMHQCSEEKMMEFLQLMSKFKEMGFELKDIKEVLLLHNNDQDNALEDLMARAGAS
# B2: endogenous UBAP1 (protein, UniProt Q9NZ09 1-502)
# chain: B1 chain
# Experiments:
# [1] = biological target: His-PumA (Pseudomonas aeruginosa PA7); assay: pull-down; […]; 20 mM Tris-HCl pH 7.5, 250 mM NaCl, […]; only the target purified
# [2] = biological target: His-PumA_(1-136) (Pseudomonas aeruginosa PA7); assay: as above
# [3] = biological target: GFP-PumA (Pseudomonas aeruginosa PA7); assay: co-IP
# [4] = biological target: HA-PumA_(137-303) (Pseudomonas aeruginosa PA7); assay: co-IP
# [5] = biological target: HA-PumA (Pseudomonas aeruginosa PA7); assay: co-IP
Binder,binding [1],binding [2],binding [3],binding [4],binding [5]
B1,binds,binds,binds,,
B2,,,,no binding,binds
